Laboratory results: PMC10350061

Target: Numb (mouse (endogenous in C2C12))
Assay: co-IP; endogenous Numb precipitated with anti-Numb antibody from lysate of C2C12 myotubes (three independent samples, other than those for LC/MS/MS); Western blot with anti-Septin 7 (Proteintech 13818-1-AP); control IgG

binding: binds
B1: Septin 7 (protein, UniProt O55131 1-436)
chain: MSVSARSAAAEERSVNCGTMAQPKNLEGYVGFANLPNQVYRKSVKRGFEFTLMVVGESGLGKSTLINSLFLTDLYSPEYPGPSHRIKKTVQVEQSKVLIKEGGVQLLLTIVDTPGFGDAVDNSNCWQPVIDYIDSKFEDYLNAESRVNRRQMPDNRVQCCLYFIAPSGHGLKPLDIEFMKRLHEKVNIIPLIAKADTLTPEECQQFKKQIMKEIQEHKIKIYEFPETDDEEENKLVKKIKDRLPLAVVGSNTIIEVNGKRVRGRQYPWGVAEVENGEHCDFTILRNMLIRTHMQDLKDVTNNVHYENYRSRKLAAVTYNGVDNNKNKGQLTKSPLAQMEEERREHVAKMKKMEMEMEQVFEMKVKEKVQKLKDSEAELQRRHEQMKKNLEAQHKELEEKRRQFEEEKANWEAQQRILEQQNSSRTLEKNKKKGKIF

Results are given in words; binding and its absence hold for the method and conditions named. In cells and extracts the contact can be indirect. Binding calls can cover weak binding; strength is not graded here.
